# Data as given in the supplement of paper PMC8728848.
# The list shows a part of the results.
# B1: EUL D1A (Oryza sativa) (protein)
# chain: MFGFGHHHNQAPAAPSDPNQIFKIFCRANENYCLTVRDSAVVLAPVNPKDEHQHWFKDMRFSTKVKDGEGMPAFALVNKATGLAVKHSLGQSHPVKLVPFNPEYEDASVLWTESKDVGKGFRCIRMVNNTRLNLDAFHGDKDHGGVRDGTTVVLWEWCKGDNQSWKILPWGPEAHSSSPGAATACTIGGVPVHTVRVFSAAGEDYCLTVRNGTACLAPKNPRDDYQHWIKDMRHSNKIRDEEGYPAFALVNKVTGEAIKHSTGQGHPVKLVPYNPEYQDESVLWTESKDVGKGFRCIRMVNNIYLNFDAFHGDKDHGGIHDGTEIVLWKWCEGDNQRWKILPWILEQKLISEEDLNSAVDHHHHHH
# What was measured:
# Assay in all cases: glycan array binding signal (z-score within array); higher = stronger binding
# Conditions in all cases: glycan notation: IUPAC condensed, linker removed
# [1] = biological target: Gal(b1-4)GlcNAc(b1-6)GalNAc
# How it was run: (§1)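 Glycan array binding is given as a within-array Z-score, which can be read as non-binding when negative. The arrays, 3228 of them, came from the Consortium for Functional Glycomics database and were retained only where the protein sequence was available. Z-scores were averaged across arrays of the same protein sequence at different concentrations or buffers and across linkers.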
# [2] = biological target: Gal(b1-4)GlcNAc(b1-6)[Gal(b1-3)]GalNAc
# How it was run: as §1
# [3] = biological target: Gal(b1-4)GlcNAc(b1-6)[Gal(b1-4)GlcNAc(b1-3)]GalNAc
# How it was run: as §1
# [4] = biological target: Gal(b1-4)GlcNAc6P
# How it was run: as §1
# [5] = biological target: Gal(b1-6)Gal
# How it was run: as §1
# [6] = biological target: Gal3S(b1-3)GalNAc
# How it was run: as §1
# [7] = biological target: Gal3S(b1-3)GlcNAc
# How it was run: as §1
# [8] = biological target: Gal3S(b1-3)[Fuc(a1-4)]GlcNAc
# How it was run: as §1
# [9] = biological target: Gal3S(b1-4)Glc
# How it was run: as §1
# [10] = biological target: Gal3S(b1-4)Glc6S
# How it was run: as §1
# [11] = biological target: Gal3S(b1-4)GlcNAc
# How it was run: as §1
# [12] = biological target: Gal3S(b1-4)[Fuc(a1-3)]Glc6S
# How it was run: as §1
# [13] = biological target: Gal3S(b1-4)[Fuc(a1-3)]GlcNAc
# How it was run: as §1
# [14] = biological target: Gal3S(b1-4)[Fuc(a1-3)]GlcNAc6S
# How it was run: as §1
# [15] = biological target: Gal3S4S(b1-4)GlcNAc
# How it was run: as §1
# [16] = biological target: Gal3S6S(b1-4)GlcNAc
# How it was run: as §1
# [17] = biological target: Gal3S6S(b1-4)GlcNAc6S
# How it was run: as §1
# [18] = biological target: Gal4S(b1-4)GlcNAc
# How it was run: as §1
# [19] = biological target: Gal4S6S(b1-4)GlcNAc
# How it was run: as §1
# [20] = biological target: Gal6P(b1-4)GlcNAc
# How it was run: as §1
# [21] = biological target: Gal6S(b1-3)GlcNAc
# How it was run: as §1
# [22] = biological target: Gal6S(b1-3)GlcNAc6S
# How it was run: as §1
# [23] = biological target: Gal6S(b1-4)Glc
# How it was run: as §1
# [24] = biological target: Gal6S(b1-4)Glc6S
# How it was run: as §1
# [25] = biological target: Gal6S(b1-4)GlcNAc
# How it was run: as §1
# [26] = biological target: Gal6S(b1-4)GlcNAc6S
# How it was run: as §1
# [27] = biological target: GalNAc(a1-3)Gal
# How it was run: as §1
# [28] = biological target: GalNAc(a1-3)GalNAc
# How it was run: as §1
# [29] = biological target: GalNAc(a1-3)GalNAc(b1-3)Gal(a1-4)Gal(b1-4)Glc
# How it was run: as §1
# [30] = biological target: GalNAc(a1-3)GalNAc(b1-3)Gal(a1-4)Gal(b1-4)GlcNAc
# How it was run: as §1
# [31] = biological target: GalNAc(b1-3)Gal
# How it was run: as §1
# [32] = biological target: GalNAc(b1-3)Gal(a1-4)Gal(b1-4)GlcNAc
# How it was run: as §1
# [33] = biological target: GalNAc(b1-3)Gal(a1-4)Gal(b1-4)GlcNAc(b1-3)Gal(b1-4)Glc
# How it was run: as §1
# [34] = biological target: GalNAc(b1-3)Gal(a1-6)Gal(b1-4)Glc
# How it was run: as §1
# [35] = biological target: GalNAc(b1-3)GalNAc
# How it was run: as §1
# [36] = biological target: GalNAc(b1-3)GlcNAc
# How it was run: as §1
# [37] = biological target: GalNAc(b1-4)Gal(b1-4)Glc
# How it was run: as §1
# [38] = biological target: GalNAc(b1-4)GlcNAc
# How it was run: as §1
binder,measurement,setting,value
B1,glycan array binding signal (z-score),[1],0.031
same,glycan array binding signal (z-score),[2],-0.219
same,glycan array binding signal (z-score),[3],0.892
same,glycan array binding signal (z-score),[4],-1.15
same,glycan array binding signal (z-score),[5],-1.2
same,glycan array binding signal (z-score),[6],-0.294
same,glycan array binding signal (z-score),[7],0.344
same,glycan array binding signal (z-score),[8],2.28
same,glycan array binding signal (z-score),[9],0.794
same,glycan array binding signal (z-score),[10],0.17
same,glycan array binding signal (z-score),[11],1
same,glycan array binding signal (z-score),[12],2.51
same,glycan array binding signal (z-score),[13],0.926
same,glycan array binding signal (z-score),[14],-0.073
same,glycan array binding signal (z-score),[15],0.508
same,glycan array binding signal (z-score),[16],0.639
same,glycan array binding signal (z-score),[17],0.718
same,glycan array binding signal (z-score),[18],0.561
same,glycan array binding signal (z-score),[19],-0.086
same,glycan array binding signal (z-score),[20],-0.831
same,glycan array binding signal (z-score),[21],-0.532
same,glycan array binding signal (z-score),[22],-0.305
same,glycan array binding signal (z-score),[23],0.689
same,glycan array binding signal (z-score),[24],1.42
same,glycan array binding signal (z-score),[25],-0.407
same,glycan array binding signal (z-score),[26],-0.063
same,glycan array binding signal (z-score),[27],-0.556
same,glycan array binding signal (z-score),[28],0.134
same,glycan array binding signal (z-score),[29],-0.009
same,glycan array binding signal (z-score),[30],-0.153
same,glycan array binding signal (z-score),[31],-0.537
same,glycan array binding signal (z-score),[32],1.76
same,glycan array binding signal (z-score),[33],-0.333
same,glycan array binding signal (z-score),[34],0.714
same,glycan array binding signal (z-score),[35],-0.061
same,glycan array binding signal (z-score),[36],0.832
same,glycan array binding signal (z-score),[37],-1
same,glycan array binding signal (z-score),[38],-0.309
